At least one structure is not confirmed: it was looked up by name or label, or the drawing left a doubt.
Molecular target: T1, human estrogen receptor α-GST fusion protein (ER-α) (Homo sapiens, UniProt P03372)
T1 construct: made in house; host or cells: Escherichia coli BL21
T1 sequence (P03372 311-547 limits assumed): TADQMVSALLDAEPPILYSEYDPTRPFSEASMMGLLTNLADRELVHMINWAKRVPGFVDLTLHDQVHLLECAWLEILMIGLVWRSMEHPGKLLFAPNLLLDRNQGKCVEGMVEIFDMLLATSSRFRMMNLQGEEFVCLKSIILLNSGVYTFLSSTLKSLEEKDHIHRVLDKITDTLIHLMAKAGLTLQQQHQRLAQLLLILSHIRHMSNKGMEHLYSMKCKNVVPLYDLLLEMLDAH
Test: Assay of ligand using coactivator SRC1-bound plate, ER-α (present detection method)
Format: biochemical
Details: FIGS. 7A to 7C
Experimental: In a manner similar to that of the aforementioned existing method, a purified ER-α product (10 mL) was prepared from an ER-α cell culture (1 L). By use of this product, the amount of an assay reagent prepared was examined as described hereinbelow. Avidin was immobilized on a plate in advance, and a biotinylated coactivator SRC1 (0.01 mg/mL, dissolved in DMSO) was prepared into a solution (final concentration: […]) by use of a washing buffer. The thus-prepared solution was dispensed into the plate (100 μL/well), followed by impregnation for one hour, to thereby prepare an SRC1-bound plate. […] After reaction with shaking for one hour, the plate was washed with a washing buffer, and an HRP-labeled anti-GST antibody solution prepared by diluting the antibody with a washing buffer by a factor of 1/40,000 was dispensed into the plate (100 μL/well), followed by reaction with shaking for one hour. After reaction, the plate was washed with a washing buffer; a color-developing reagent was added to the plate (100 μL/well); and the plate was allowed to stand still for 10 minutes for color development reaction. Color development reaction was stopped by use of 1 N sulfuric acid, followed by measurement at a wavelength of 450 nm by means of a plate reader.
An HRP-labeled anti-GST antibody was employed for assay.

CCCc1c(-c2ccc(O)cc2)nn(-c2ccc(O)cc2)c1-c1ccc(O)cc1 [propyl-pyrazole-triol]
agonistic effect, ER-α compared with ER-β (absorbance relative to that of E2): agonistic effect greater on ER-α than on ER-β
